Source: patent US20190070268A1, “ABUSE-DETERRENT PHARMACEUTICAL COMPOSITIONS” (priority 2016, published 2019)
Some results were stated once for a whole list of compounds, not compound by compound.

The chains behind the UniProt entries cited, without tags or fusion partners. Residues count along the entry.
UniProt P00791, 60-385: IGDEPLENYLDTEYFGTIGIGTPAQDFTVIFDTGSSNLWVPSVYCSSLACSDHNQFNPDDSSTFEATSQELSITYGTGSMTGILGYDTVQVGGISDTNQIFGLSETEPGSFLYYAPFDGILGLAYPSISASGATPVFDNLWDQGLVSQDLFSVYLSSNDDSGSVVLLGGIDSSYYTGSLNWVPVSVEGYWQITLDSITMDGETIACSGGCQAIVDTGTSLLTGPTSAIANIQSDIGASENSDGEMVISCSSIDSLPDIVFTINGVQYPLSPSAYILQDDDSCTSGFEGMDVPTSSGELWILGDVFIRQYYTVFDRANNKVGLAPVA

Target: T1, pepsin (Sus scrofa, UniProt P00791)
T1 construct: purchased Sigma-Aldrich (US) P7000
Test: Pepsin digestion assay in simulated gastric fluid with SDS-PAGE
Assay type: in vitro ADME
Details: SGF pH 1.2 with pepsin, 37° C.
Experimental: SGF contains 0.084 M HCl, 0.035 M NaCl, 4000 U of pepsin per reaction mixture and has a pH level of 1.2 according to the United States Pharmacopeia (1995). A ratio of 10000 Units of pepsin activity to 1 mg of test protein was used throughout the assay, which is based on an evaluation of the average activity of pepsin recommended in the United States Pharmacopeia (24th edition, 2000) with some modifications. Pepsin (ref. #P7000) was purchased from Sigma-Aldrich (US). All proteins that were used were dissolved in 50 mM Tris-HCl (pH 9.5) at a concentration of 5 mg mL^−1. The reaction mixture contained 1.52 mL of SGF preheated to 37° C. before the addition of 0.08 mL of protein solution (Thomas et al., 2004). The mixture was placed into a thermomixer at 37° C. and was shaken at 400 rpm. For denaturating SDS-polyacrylamide gel electrophoresis (SDS-PAGE) analysis samples of 160 μl were removed at 0 minutes, 0.5 minutes, and 15 minutes after initiation.
SDS-PAGE was performed to analyze and visually inspect stained protein bands whether the protein band is still intact or fragmented after the digestion assay. […]
Each 160 μl of the digestion samples was quenched by adding 56 μl of 200 mM NaHCO3 as neutralization step and 56 μl 4× Laemmli (Laemmli 1970) buffer for electrophoresis. Samples were immediately heated up to 99° C. for 10 minutes and analyzed directly or stored at −20° C. […]

Q: For HRP: horse radish peroxidase, which “time within which the protein band vanished (SDS-PAGE)” value is on record?
A: ≤ 30 s
